PubChem BioAssay AID1487 (National Center for Advancing Translational Sciences (NCATS), 2009)
The list shows a part of the results. Shown are side measurements of this screen, not its main read-out; they come without a call. Compounds called inactive in the main read-out are mostly missing here. Words in brackets tell the shape of the fitted curve; partial curves, single points and poor fits give uncertain potencies.

Assay: qHTS Assay for Modulators of Lamin A Splicing
Conditions: HeLa LMNA splicing GFP/RFP minigene ratio, 48 h
Outline: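 S3 HeLa cells stably expressing lamin A-EGFP splicing minigene plus DsRed2, 600 cells/well, 48 h compound exposure at 37C. Laser-scanning cytometry; analysed as GFP (500-530 nm)/RFP (575-640 nm) total intensity ratio; 0.5% DMSO vehicle.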

[1] = measured here: RFP viability control channel
[2] = measured here: GFP splicing reporter channel

Row | SMILES | AC50 [1] | AC50 [2]
1 | Cn1c(=O)c2c(nc(N3CCN(Cc4ccccc4)CC3)n2CCCc2ccccc2)n(C)c1=O | 35.5 µM [rising, single point] | 
2 | CCOc1ccc(NC(=O)C2CCCCN2S(=O)(=O)c2ccccc2)cc1 (stereo unspecified) | 31.6 µM [rising, single point] | 12.6 µM [rising, partial curve, poor fit]
3 | O=c1[nH]c(/C(Cl)=C/c2c(F)cccc2Cl)nc2cc(Cl)ccc12 | 3.16 µM [rising, partial curve] | 
4 | CCN(CC(=O)Nc1ccc([N+](=O)[O-])cc1OC)CC(=O)NC(C)(C)C | 35.5 µM [rising, single point] | 35.5 µM [rising, single point]
5 | CCOC(=O)C1(Cc2ccccc2Cl)CCN(C(=O)CCn2ccnc2C)CC1 | 0.00355 µM [falling, full curve, poor fit] | 28.2 µM [falling, partial curve, poor fit]
6 | CS(=O)(=O)Nc1cccc(-c2nc(N3CCOCC3)c3ccccc3n2)c1 | 35.5 µM [rising, single point] | 
7 | Cc1nc2ccc(S(=O)(=O)Nc3cccc(-c4nc5cccnc5s4)c3)cc2s1 | 8.91 µM [rising, partial curve] | 
8 | Cc1cc(S(=O)(=O)NCC(c2ccco2)S(=O)(=O)c2cccs2)ccc1F (stereo unspecified) | 0.0708 µM [falling, full curve, poor fit] | 0.0794 µM [falling, full curve, poor fit]
9 | COc1ccccc1CNC(=O)c1ccc2c(=O)n(CCCN3CCCC3=O)c(=S)[nH]c2c1 |  | 3.55 µM [rising, partial curve, poor fit]
10 | Nc1nc(=S)[nH]c2c1C1(CCCCC1)Cc1ccccc1-2 | 25.1 µM [rising, single point] | 
11 | Cc1ccc(SCCNC(=O)/C=C/c2ccccc2Cl)cc1 | 25.1 µM [falling, single point] | 25.1 µM [falling, single point]
12 | O=C(c1cccc(S(=O)(=O)N2CCOCC2)c1)N(Cc1ccc(F)cc1)Cc1ccco1 | 20 µM [falling, partial curve, poor fit] | 35.5 µM [falling, single point]
13 | COc1ccc(C(=O)Nc2cccc(C(=O)NCc3ccccc3)c2)cc1 |  | 7.94 µM [rising, partial curve, poor fit]
14 | Cc1oc2ccc(O)c(CN3CCOCC3)c2c1C(=O)c1ccc(Cl)cc1 | 14.1 µM [rising, single point] | 
15 | CCOc1ccccc1NC(=O)/C=C/C(N)=O | 35.5 µM [falling, single point] | 35.5 µM [falling, single point]
16 | Cc1ccc(S(=O)(=O)Oc2ccccc2/C=N/NC(N)=S)cc1 | 3.16 µM [rising, single point] | 
17 | O=C(Nc1cccn(Cc2c(Cl)cccc2Cl)c1=O)c1c(Cl)cccc1Cl |  | 20 µM [falling, partial curve, poor fit]
18 | CC(C)(C(=O)c1cccnc1)c1cccnc1 | 7.94 µM [falling, single point] | 12.6 µM [falling, single point]

Row | SMILES | AC50 [1] | AC50 [2]
19 | COc1ccccc1CNC(=O)c1ccc(-c2ccccc2Cl)o1 | 17.8 µM [rising, partial curve] | 
20 | Cc1ccccc1-c1ccc2ncnc(N3CCOCC3)c2c1 |  | 1.26 µM [falling, partial curve, poor fit]
21 | CCOc1nc(C#N)nc(N2CCCCC2)n1 | 11.2 µM [rising, single point] | 
22 | NCCCCNCCCN | 0.891 µM [rising, full curve, poor fit] | 
23 | CCn1c2ccccc2c2cc(NS(=O)(=O)c3ccccc3C)ccc21 | 14.1 µM [falling, partial curve] | 20 µM [falling, partial curve]
24 | C[n+]1cc(C(=O)N2CCCCC2)ccc1/C=C/c1c[nH]c2ccccc12 | 0.158 µM [falling, partial curve] | 
25 | COc1cc(OC)cc(C(=O)N[C@H](C(=O)OCC(=O)c2ccc(F)cc2)C(C)C)c1 | 35.5 µM [rising, single point] | 
26 | CCN(CC)S(=O)(=O)c1cccc(NC(=O)COC(=O)/C=C/c2ccco2)c1 |  | 0.0316 µM [rising, full curve, poor fit]
27 | Cc1cc(Nc2nc(Cl)c(Cl)cc2Cl)n(-c2ccccc2)n1 | 7.94 µM [rising, partial curve, poor fit] | 
28 | CON(C)c1nc(OCCNC(=O)OCc2ccc(Cl)cc2C)nc(N(C)C)n1 | 35.5 µM [rising, single point] | 
29 | NC(Cc1cccc(-c2ccccc2CP(=O)(O)O)c1)C(=O)O (stereo unspecified) |  | 0.0251 µM [rising, full curve, poor fit]
30 | O=C(Nc1ccc(N2CCN(C(=O)c3ccc(Cl)cc3)CC2)cc1)c1ccc2c(c1)OCCO2 | 3.98 µM [rising, partial curve, poor fit] | 3.55 µM [rising, single point]
31 | Cc1ccc(S(=O)(=O)Nc2ccc3c(c2)CCC3)cc1C | 11.2 µM [rising, partial curve] | 
32 | CC(C)(C)OC(=O)[C@H]1[C@H](c2ccc([N+](=O)[O-])cc2)C2(C(=O)c3ccccc3C2=O)C2c3ccccc3C=NN21 (stereo partly specified) | 12.6 µM [rising, partial curve, poor fit] | 10 µM [rising, partial curve, poor fit]
33 | CCCCCCNC(=O)CC(NS(=O)(=O)c1ccc(NC(C)=O)cc1)C(C)C (stereo unspecified) | 12.6 µM [rising, single point] | 
34 | O=C(Cc1ccc(-n2c(=O)[nH]c3ccsc3c2=O)cc1)N1CCN(c2ccc(Cl)cc2)CC1 | 35.5 µM [rising, single point] | 
35 | C/C(CC(=O)Nc1ccc(C)c(Cl)c1)=N\NC(=O)c1ccncc1 |  | 0.00447 µM [rising, full curve, poor fit]

Ordered by SMILES length (rising): part of the list above
Row | SMILES | AC50 [1] | AC50 [2]
10 | Nc1nc(=S)[nH]c2c1C1(CCCCC1)Cc1ccccc1-2 | 25.1 µM [rising, single point] | 
23 | CCn1c2ccccc2c2cc(NS(=O)(=O)c3ccccc3C)ccc21 | 14.1 µM [falling, partial curve] | 20 µM [falling, partial curve]
33 | CCCCCCNC(=O)CC(NS(=O)(=O)c1ccc(NC(C)=O)cc1)C(C)C (stereo unspecified) | 12.6 µM [rising, single point] | 
